# Source: publication PMC9374377 (The Journal of Clinical Investigation, 2022)
# Assay: general procedure: Fmoc solid-phase peptide synthesis; 2-Chlorotrityl chloride resin; HBTU, HOBT, DIPEA
# Conditions: whole synthesis, scale 0.04 mmol
Substance,final purity (method not given) [%],isolated mass [mg],isolated yield [%]
"2,2',2''-(10-(2-((8-(((S)-3-(((2S,3S)-1-(((3S,6S)-6-(((2H-1,2,3-triazol-4-yl)methyl)carbamoyl)-4-oxo-1,2,3,4,6,7-hexahydroazepino[3,2,1-hi]indol-3-yl)amino)-3-methyl-1-oxopentan-2-yl)amino)-1-carboxy-3-oxopropyl)amino)-8-oxooctyl)amino)-2-oxoethyl)-1,4,7,10-tetraazacyclododecane-1,4,7-triyl)triacetic acid",98,7.1,16
"2,2',2''-(10-(2-(((S)-3-((3-(2-(((2S,3S)-1-(((3S,6S)-6-(((2H-1,2,3-triazol-4-yl)methyl)carbamoyl)-4-oxo-1,2,3,4,6,7-hexahydroazepino[3,2,1-hi]indol-3-yl)amino)-3-methyl-1-oxopentan-2-yl)amino)-2-oxoethyl)benzyl)amino)-1-carboxy-3-oxopropyl)amino)-2-oxoethyl)-1,4,7,10-tetraazacyclododecane-1,4,7-triyl)triacetic acid",98,11,25
"2,2',2''-(10-(2-(((S)-3-(((S)-3-((3-(2-(((2S,3S)-1-(((3S,6S)-6-(((2H-1,2,3-triazol-4-yl)methyl)carbamoyl)-4-oxo-1,2,3,4,6,7-hexahydroazepino[3,2,1-hi]indol-3-yl)amino)-3-methyl-1-oxopentan-2-yl)amino)-2-oxoethyl)benzyl)amino)-1-carboxy-3-oxopropyl)amino)-1-carboxy-3-oxopropyl)amino)-2-oxoethyl)-1,4,7,10-tetraazacyclododecane-1,4,7-triyl)triacetic acid",98,12,25

# The same purity stands for every peptide and may come from a single statement.
